From US20150216794A1, “METHODS OF TREATING PAIN ASSOCIATED WITH OSTEOARTHRITIS OF A JOINT WITH A TOPICAL FORMULATION OF A SPIRO-OXINDOLE COMPOUND” (IVAX International GmbH, priority 2014, published 2015)
“And” between values parts separate entries of the source, which are not always exact repeats. Identical values can stand only once. The source gives many values for each of these; only a part stands here.

Tests used:
[1] = minipig repeated dermal dosing: spiro-oxindole compound in plasma (LC-MS/MS); format: in vivo, Göttingen minipig; conditions: for spiro-oxindole compound in plasma, Mean: male minipigs, dermal ca 70 mg ointment/kg/day
Description: The study was carried out on minipigs to obtain information on plasma pharmacokinetics, tissue distribution and accumulation, excretion and metabolic profile of the spiro-oxindole compound after daily dermal administration of a pharmaceutical composition of the invention for 20 consecutive days followed by a single dose of [^14C]-spiro-oxindole compound Day 21.
Midazolam was administered on Days 0 and 20 to 3 male minipigs by bolus intravenous injection at a dose level 0.5 mg/kg.
The [^14C]-spiro-oxindole composition was prepared as follows:
Dosages of test formulations were applied with foil and spread using nitrile gloves to form a thin uniform layer to the treatment site.

[2] = minipig: tissue distribution of radioactivity and unchanged compound; format: in vivo, Göttingen minipig
Description: The following tissues/organs were removed from the remaining carcass:
The urinary bladder from each animal was rinsed with saline and the washings discarded. Each section of the gastrointestinal tract wall was washed to remove contents (which were retained for analysis) prior to analysis. Remaining carcasses were discarded.

[3] = domestic pig joint penetration study: concentration in plasma; format: in vivo; conditions: 3.0 μL/cm^2 bid
Description: This study was conducted to evaluate the joint penetration, systemic plasma exposure and tissue distribution of the spiro-oxindole compound in domestic pigs following topical administration of a pharmaceutical composition utilized in the methods of the invention. Fifteen female pigs were used in this study with three pigs in each group. Beginning on Day 1, a pharmaceutical composition of the invention was topically applied to the left radiocarpal joint (carpus) and tibiotarsal joint (hock) twice daily (bid) for 17 days (34 applications) for Groups 1-4 and once daily (qd) for 17 days (17 applications) for Group 5. Pre-dose blood samples (prior to morning dosing) was collected on Days 2, 7, 10, 14 and 17. A full pharmacokinetic sampling was performed on Day 17 (post am dosing) at the following time points: 1, 2, 4, 8 and 12 hr. On the day of necropsy, Day 18, blood was collected prior to euthanasia, each pig was humanely euthanized and dorsal skin and muscle, liver, kidney, heart, lung, brain, intestine, fat, ovaries, urinary bladder, sciatic nerve, and skin, muscle, synovial membrane, and synovial fluid from all 4 joints (2 treated, left carpus and hock, and 2 untreated, right carpus and hock) was collected.
The dose volume (μL/cm^2) for the test pharmaceutical compositions was 3.0 μL/cm^2 for Groups 1, 2, 3 and 5 and 1.0 μL/cm^2 for Group 4.
Approximately 2 mL of whole blood was collected prior to the morning dose administration on Days 2, 7, 10, 14 and 17. A full pharmacokinetic profile sampling was performed on Day 17 after the morning dose administration at the following time points: 1, 2, 4, 8 and 12 hr. On the day of necropsy, Day 18, blood was collected prior to euthanasia.

spiro-oxindole compound in plasma, Mean ([1]; Predose Day 2): 1.43 ng/mL
spiro-oxindole compound in plasma, Mean ([1]; Predose Day 14): 5.86 ng/mL
spiro-oxindole compound in plasma, Mean ([1]; Predose Day 21): 3.33 ng/mL
mean plasma concentration of spiro-oxindole compound ([1]; minipigs, 24 hours post last dose (Day 21)): 6060 µg/mL
total radioactivity ([2]; heart): 18.5 ng equiv spiro-oxindole compound/g
total radioactivity ([2]; liver): 74.9 ng equiv spiro-oxindole compound/g
concentration in plasma, individual animals ([3]; G1 (#1-#3): 2% composition, Day 2 Before dosing): 0.00102 µg/mL and 0.00165 µg/mL
concentration in plasma, individual animals ([3]; G1 (#1-#3): 2% composition, Day 7 Before dosing): 0.00136 µg/mL and 0.00412 µg/mL
concentration in plasma, individual animals ([3]; G1 (#1-#3): 2% composition, Day 10 Before dosing): 0.00114 µg/mL and 0.00187 µg/mL
concentration in plasma, individual animals ([3]; G1 (#1-#3): 2% composition, Day 14 Before dosing): 0.00344 µg/mL and 0.00469 µg/mL
concentration in plasma, individual animals ([3]; G1 (#1-#3): 2% composition, Day 17 1 hour after dosing): 0.00759 µg/mL and 0.00271 µg/mL
concentration in plasma, individual animals ([3]; G1 (#1-#3): 2% composition, Day 17 2 hour after dosing): 0.0011 µg/mL and 0.00216 µg/mL
concentration in plasma, individual animals ([3]; G1 (#1-#3): 2% composition, Day 17 4 hour after dosing): 0.00822 µg/mL and 0.00167 µg/mL
concentration in plasma, individual animals ([3]; G1 (#1-#3): 2% composition, Day 17 8 hour after dosing): 0.00191 µg/mL and 0.00203 µg/mL
concentration in plasma, individual animals ([3]; G1 (#1-#3): 2% composition, Day 17 12 hour after dosing): 0.01028 µg/mL and 0.01285 µg/mL
concentration in plasma, individual animals ([3]; G1 (#1-#3): 2% composition, Day 17 Before dosing): 0.00113 µg/mL and 0.00143 µg/mL
concentration in plasma, individual animals ([3]; G1 (#1-#3): 2% composition, Day 18): 0.00394 µg/mL and 0.00324 µg/mL
concentration in plasma, individual animals ([3]; G2 (#4-#6): 4% composition, Day 2 Before dosing): 0.00124 µg/mL
concentration in plasma, individual animals ([3]; G2 (#4-#6): 4% composition, Day 7 Before dosing): 0.00174 µg/mL and 0.00266 µg/mL
concentration in plasma, individual animals ([3]; G2 (#4-#6): 4% composition, Day 10 Before dosing): 0.00534 µg/mL and 0.00211 µg/mL
concentration in plasma, individual animals ([3]; G2 (#4-#6): 4% composition, Day 14 Before dosing): 0.00435 µg/mL and 0.0034 µg/mL
concentration in plasma, individual animals ([3]; G2 (#4-#6): 4% composition, Day 17 1 hour after dosing): 0.00278 µg/mL and 0.00224 µg/mL
concentration in plasma, individual animals ([3]; G2 (#4-#6): 4% composition, Day 17 2 hour after dosing): 0.0042 µg/mL and 0.00248 µg/mL
concentration in plasma, individual animals ([3]; G2 (#4-#6): 4% composition, Day 17 4 hour after dosing): 0.00356 µg/mL and 0.00483 µg/mL
concentration in plasma, individual animals ([3]; G2 (#4-#6): 4% composition, Day 17 8 hour after dosing): 0.00302 µg/mL and 0.00162 µg/mL
concentration in plasma, individual animals ([3]; G2 (#4-#6): 4% composition, Day 17 12 hour after dosing): 0.02178 µg/mL
concentration in plasma, individual animals ([3]; G2 (#4-#6): 4% composition, Day 17 Before dosing): 0.0039 µg/mL and 0.00224 µg/mL
Compound: O=C1N(Cc2ccc(C(F)(F)F)o2)c2ccccc2[C@]12COc1cc3c(cc12)OCO3 [spiro-oxindole compound, (S)-1′-{[5-(trifluoromethyl)furan-2-yl]methyl}spiro[furo[2,3-f][1,3]benzodioxole-7,3′-indol]-2′(1′H)one]
mean radioactivity concentration ([2]; bone marrow): 154 ng equivalents spiro-oxindole compound/g
mean radioactivity concentration ([2]; fatty tissue, abdominal (white fat)): 273 ng equivalents spiro-oxindole compound/g
mean radioactivity concentration ([2]; fatty tissue, brown): 100 ng equivalents spiro-oxindole compound/g
mean radioactivity concentration ([2]; gall bladder contents): 4870 ng equivalents spiro-oxindole compound/g
mean radioactivity concentration ([2]; muscle underlying the dose site): 142 ng equivalents spiro-oxindole compound/g
mean radioactivity concentration ([2]; skin from the dose site): 25500 ng equivalents spiro-oxindole compound/g
mean radioactivity concentration ([2]; skin remote from the dose site): 111 ng equivalents spiro-oxindole compound/g
